Data: publication PMC4906169
These are yes or no findings as the source states them, for the method shown. For part of these data: In cells and extracts the contact can be indirect. Some results given as binding are weak or reduced against the parent protein; the word gives no strength. Tags and fused reporters may be left off the sequences shown. One block for each binder: values may come before it.

Key:
[1] = target: T1, STELLO1 (STL1), split-ubiquitin fusion in yeast (Arabidopsis thaliana) (UniProt O22943); experiment: two-hybrid; split-ubiquitin membrane yeast two-hybrid (MbYTH); STLs as bait (pTFB1), NubG preys (pADSL-Nx); yeast strain NYM51; growth of at least 50 spotted colonies after 4 days at 28 °C on SD lacking Leu, Trp, His and Ade with 150 mM 3-ammonium-triazole
T1 sequence: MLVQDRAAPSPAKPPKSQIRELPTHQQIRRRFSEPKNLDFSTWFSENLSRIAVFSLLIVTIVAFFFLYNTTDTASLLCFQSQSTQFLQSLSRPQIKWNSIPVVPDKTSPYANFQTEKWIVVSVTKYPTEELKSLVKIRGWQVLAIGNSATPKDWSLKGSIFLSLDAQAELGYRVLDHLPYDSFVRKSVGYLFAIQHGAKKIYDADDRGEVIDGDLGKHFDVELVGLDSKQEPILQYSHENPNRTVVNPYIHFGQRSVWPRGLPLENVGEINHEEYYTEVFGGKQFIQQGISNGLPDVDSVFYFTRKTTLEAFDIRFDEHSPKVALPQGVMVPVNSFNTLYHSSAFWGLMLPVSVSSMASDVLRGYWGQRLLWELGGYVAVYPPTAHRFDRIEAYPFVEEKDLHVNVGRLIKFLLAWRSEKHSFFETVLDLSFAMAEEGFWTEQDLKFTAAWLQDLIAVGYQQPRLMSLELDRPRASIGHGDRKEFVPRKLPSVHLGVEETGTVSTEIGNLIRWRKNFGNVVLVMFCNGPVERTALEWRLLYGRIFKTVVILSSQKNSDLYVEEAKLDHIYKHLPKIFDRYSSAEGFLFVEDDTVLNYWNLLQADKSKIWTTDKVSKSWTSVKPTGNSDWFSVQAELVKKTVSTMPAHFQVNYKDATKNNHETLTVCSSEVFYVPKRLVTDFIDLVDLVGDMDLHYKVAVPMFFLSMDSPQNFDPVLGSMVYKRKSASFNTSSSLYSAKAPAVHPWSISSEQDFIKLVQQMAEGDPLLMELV

[2] = target: T2, STELLO2 (STL2), split-ubiquitin fusion in yeast (Arabidopsis thaliana) (UniProt Q9SCN0); experiment: as above
T2 sequence: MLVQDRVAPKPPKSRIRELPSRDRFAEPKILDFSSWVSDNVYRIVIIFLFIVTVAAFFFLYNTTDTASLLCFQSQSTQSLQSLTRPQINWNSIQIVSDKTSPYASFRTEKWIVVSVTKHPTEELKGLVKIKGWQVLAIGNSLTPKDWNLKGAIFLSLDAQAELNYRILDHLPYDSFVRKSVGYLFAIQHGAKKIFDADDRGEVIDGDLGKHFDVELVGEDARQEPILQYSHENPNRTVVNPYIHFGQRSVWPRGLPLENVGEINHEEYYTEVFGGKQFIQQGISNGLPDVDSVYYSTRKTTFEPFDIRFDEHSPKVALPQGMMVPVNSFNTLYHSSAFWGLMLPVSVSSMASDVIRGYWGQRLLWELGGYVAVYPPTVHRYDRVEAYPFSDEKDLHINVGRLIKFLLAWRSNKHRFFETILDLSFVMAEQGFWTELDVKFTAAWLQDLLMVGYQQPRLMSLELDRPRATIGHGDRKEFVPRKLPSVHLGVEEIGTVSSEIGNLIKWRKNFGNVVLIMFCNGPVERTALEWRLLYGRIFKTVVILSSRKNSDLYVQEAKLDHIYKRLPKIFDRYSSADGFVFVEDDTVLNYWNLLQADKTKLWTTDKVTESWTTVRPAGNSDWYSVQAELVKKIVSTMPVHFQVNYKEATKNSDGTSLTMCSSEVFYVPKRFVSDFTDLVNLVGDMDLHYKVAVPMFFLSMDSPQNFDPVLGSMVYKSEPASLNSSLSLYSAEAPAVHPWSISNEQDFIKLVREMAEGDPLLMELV

[3] = target: T3, STELLO1 (STL1), BiFC fusion (Yn-STL1 / Yc-STL1) (Arabidopsis thaliana) (UniProt O22943); experiment: split reporter; BiFC with Yn/Yc halves of VENUS fused to the N-termini; transient co-expression in N. benthamiana epidermal leaf cells, imaged by confocal microscopy 62 h after infiltration
T3 sequence: T1 sequence

[4] = target: T4, STELLO2 (STL2), BiFC fusion (Yn-STL2 / Yc-STL2) (Arabidopsis thaliana) (UniProt Q9SCN0); experiment: as above
T4 sequence: T2 sequence

binding [1]: binds
binding [2]: binds
B1: Cellulose synthase CesA4, NubG prey fusion in yeast (protein, UniProt Q84JA6 1-1049)
chain: MEPNTMASFDDEHRHSSFSAKICKVCGDEVKDDDNGQTFVACHVCVYPVCKPCYEYERSNGNKCCPQCNTLYKRHKGSPKIAGDEENNGPDDSDDELNIKYRQDGSSIHQNFAYGSENGDYNSKQQWRPNGRAFSSTGSVLGKDFEAERDGYTDAEWKERVDKWKARQEKRGLVTKGEQTNEDKEDDEEEYLDAEARQPLWRKVPISSSKISPYRIVIVLRLVILVFFFRFRILTPAKDAYPLWLISVICEIWFALSWILDQFPKWFPINRETYLDRLSMRFERDGEKNKLAPVDVFVSTVDPLKEPPIITANTILSILAVDYPVNKVSCYVSDDGASMLLFDTLSETSEFARRWVPFCKKYNVEPRAPEFYFSEKIDYLKDKVQTTFVKDRRAMKREYEEFKVRINALVAKAQKKPEEGWVMQDGTPWPGNNTRDHPGMIQVYLGKEGAFDIDGNELPRLVYVSREKRPGYAHHKKAGAMNAMVRVSAVLTNAPFMLNLDCDHYINNSKAIRESMCFLMDPQLGKKLCYVQFPQRFDGIDLNDRYANRNIVFFDINMRGLDGIQGPVYVGTGCVFNRPALYGYEPPVSEKRKKMTCDCWPSWICCCCGGGNRNHKSDSSKKKSGIKSLFSKLKKKTKKKSDDKTMSSYSRKRSSTEAIFDLEDIEEGLEGYDELEKSSLMSQKNFEKRFGMSPVFIASTLMENGGLPEATNTSSLIKEAIHVISCGYEEKTEWGKEIGWIYGSVTEDILTGFRMHCRGWKSVYCMPKRPAFKGSAPINLSDRLHQVLRWALGSVEIFFSRHCPLWYAWGGKLKILERLAYINTIVYPFTSIPLLAYCTIPAVCLLTGKFIIPTINNFASIWFLALFLSIIATAILELRWSGVSINDLWRNEQFWVIGGVSAHLFAVFQGLLKVLFGVDTNFTVTSKGASDEADEFGDLYLFKWTTLLIPPTTLIILNMVGVVAGVSDAINNGYGSWGPLFGKLFFAFWVIVHLYPFLKGLMGRQNRTPTIVVLWSILLASIFSLVWVRIDPFLPKQTGPLLKQCGVDC

binding [1]: binds
binding [2]: binds
B2: Cellulose synthase CesA3, NubG prey fusion in yeast (protein, UniProt Q941L0 1-1065)
chain: MESEGETAGKPMKNIVPQTCQICSDNVGKTVDGDRFVACDICSFPVCRPCYEYERKDGNQSCPQCKTRYKRLKGSPAIPGDKDEDGLADEGTVEFNYPQKEKISERMLGWHLTRGKGEEMGEPQYDKEVSHNHLPRLTSRQDTSGEFSAASPERLSVSSTIAGGKRLPYSSDVNQSPNRRIVDPVGLGNVAWKERVDGWKMKQEKNTGPVSTQAASERGGVDIDASTDILADEALLNDEARQPLSRKVSIPSSRINPYRMVIMLRLVILCLFLHYRITNPVPNAFALWLVSVICEIWFALSWILDQFPKWFPVNRETYLDRLALRYDREGEPSQLAAVDIFVSTVDPLKEPPLVTANTVLSILAVDYPVDKVSCYVSDDGAAMLSFESLAETSEFARKWVPFCKKYSIEPRAPEWYFAAKIDYLKDKVQTSFVKDRRAMKREYEEFKIRINALVSKALKCPEEGWVMQDGTPWPGNNTRDHPGMIQVFLGQNGGLDAEGNELPRLVYVSREKRPGFQHHKKAGAMNALVRVSAVLTNGPFILNLDCDHYINNSKALREAMCFLMDPNLGKQVCYVQFPQRFDGIDKNDRYANRNTVFFDINLRGLDGIQGPVYVGTGCVFNRTALYGYEPPIKVKHKKPSLLSKLCGGSRKKNSKAKKESDKKKSGRHTDSTVPVFNLDDIEEGVEGAGFDDEKALLMSQMSLEKRFGQSAVFVASTLMENGGVPPSATPENLLKEAIHVISCGYEDKSDWGMEIGWIYGSVTEDILTGFKMHARGWRSIYCMPKLPAFKGSAPINLSDRLNQVLRWALGSVEILFSRHCPIWYGYNGRLKFLERFAYVNTTIYPITSIPLLMYCTLPAVCLFTNQFIIPQISNIASIWFLSLFLSIFATGILEMRWSGVGIDEWWRNEQFWVIGGVSAHLFAVFQGILKVLAGIDTNFTVTSKASDEDGDFAELYLFKWTTLLIPPTTLLIVNLVGVVAGVSYAINSGYQSWGPLFGKLFFAFWVIVHLYPFLKGLMGRQNRTPTIVVVWSVLLASIFSLLWVRIDPFTSRVTGPDILECGINC

binding [3]: binds
B3: STELLO1 (STL1), BiFC fusion (Yn-STL1 / Yc-STL1) (protein, UniProt O22943 1-771)
chain: T1 sequence

binding [4]: binds
B4: STELLO2 (STL2), BiFC fusion (Yn-STL2 / Yc-STL2) (protein, UniProt Q9SCN0 1-765)
chain: T2 sequence
